We go through one molecule from doi:10.1101/2023.12.07.570679.

The test deals with T1, AtUVR8 (firefly luciferase fragment fusions AtUVR8-nLUC and cLUC-AtUVR8) (Arabidopsis thaliana), Q9FN03.
T1 chain: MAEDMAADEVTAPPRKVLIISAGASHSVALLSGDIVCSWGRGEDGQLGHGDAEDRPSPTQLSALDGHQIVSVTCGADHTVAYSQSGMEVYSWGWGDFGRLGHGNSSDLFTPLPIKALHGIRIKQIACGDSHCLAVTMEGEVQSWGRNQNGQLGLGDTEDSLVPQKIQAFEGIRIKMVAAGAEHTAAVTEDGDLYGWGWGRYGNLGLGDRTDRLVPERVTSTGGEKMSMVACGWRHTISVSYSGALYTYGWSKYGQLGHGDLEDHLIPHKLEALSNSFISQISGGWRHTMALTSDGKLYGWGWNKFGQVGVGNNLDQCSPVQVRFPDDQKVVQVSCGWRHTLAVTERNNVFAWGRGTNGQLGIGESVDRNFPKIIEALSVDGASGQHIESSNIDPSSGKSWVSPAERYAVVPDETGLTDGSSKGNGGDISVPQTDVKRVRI
Description: split reporter. The note with it: remark: other sources report otherwise.

Results are given in words; binding and its absence hold for the method and conditions named. Binding seen in cells or lysates may run through a third protein. Tags and fused reporters may be left off the sequences shown.

B1: AtUVR8 (firefly luciferase fragment fusions AtUVR8-nLUC and cLUC-AtUVR8), Q9FN03 1-440 (protein)
chain: MAEDMAADEVTAPPRKVLIISAGASHSVALLSGDIVCSWGRGEDGQLGHGDAEDRPSPTQLSALDGHQIVSVTCGADHTVAYSQSGMEVYSWGWGDFGRLGHGNSSDLFTPLPIKALHGIRIKQIACGDSHCLAVTMEGEVQSWGRNQNGQLGLGDTEDSLVPQKIQAFEGIRIKMVAAGAEHTAAVTEDGDLYGWGWGRYGNLGLGDRTDRLVPERVTSTGGEKMSMVACGWRHTISVSYSGALYTYGWSKYGQLGHGDLEDHLIPHKLEALSNSFISQISGGWRHTMALTSDGKLYGWGWNKFGQVGVGNNLDQCSPVQVRFPDDQKVVQVSCGWRHTLAVTERNNVFAWGRGTNGQLGIGESVDRNFPKIIEALSVDGASGQHIESSNIDPSSGKSWVSPAERYAVVPDETGLTDGSSKGNGGDISVPQTDVKRVRI
Take B1: the binding entry is reported as “no binding”.
